Assay results published in patent US20240368269A1.
Residue numbers refer to the chain shown, from its start. No constants are given. Whether binding was seen depends on the method and setting. Some entries that bind do so weakly or less than the wild type.

By UniProt entry, the sequences of proteins in these tests, tags left out. Where a name states a change or a piece, a line headed by the entry shows the natural chain unless it says otherwise.
UniProt Q9NYJ7: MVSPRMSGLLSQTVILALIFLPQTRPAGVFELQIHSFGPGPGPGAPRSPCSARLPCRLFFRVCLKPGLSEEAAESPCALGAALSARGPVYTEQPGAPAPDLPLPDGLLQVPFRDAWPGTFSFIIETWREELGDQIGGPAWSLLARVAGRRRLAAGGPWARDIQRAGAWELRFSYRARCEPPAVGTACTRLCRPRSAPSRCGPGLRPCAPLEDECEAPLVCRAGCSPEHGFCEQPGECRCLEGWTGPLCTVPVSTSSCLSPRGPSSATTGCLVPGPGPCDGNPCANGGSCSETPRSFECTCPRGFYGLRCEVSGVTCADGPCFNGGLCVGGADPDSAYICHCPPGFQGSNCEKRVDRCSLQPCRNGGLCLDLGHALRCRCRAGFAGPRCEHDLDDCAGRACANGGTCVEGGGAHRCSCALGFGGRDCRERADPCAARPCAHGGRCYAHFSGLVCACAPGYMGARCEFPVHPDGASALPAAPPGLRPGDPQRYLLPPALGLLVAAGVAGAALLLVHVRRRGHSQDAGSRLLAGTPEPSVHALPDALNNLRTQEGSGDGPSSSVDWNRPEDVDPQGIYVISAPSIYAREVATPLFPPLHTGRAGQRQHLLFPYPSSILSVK

B1: E23 (antibody, V domains shown)
VH: QVQLVQSGAEVRKPGASVKVSCKASGYTFTGYYMHWVRQAPGQGLEWMGWINSYSGGANYAQKFQDRVTMTRDTSVSTASMELSRLRSDDTAVYYCARDGSGWYGSYFDFWGQGTLVTVSS
VL: DIVMTQTPLSSPVTLGQPASISCRSSQSLVHSDGNTYLSWLQQRPGQPPRLLIYKISNRFSGVPDRFSGSGAGTDFTLKISRVEAEDVGFYYCIQTTQFPLTFGGGTKVEIK
B2: F9 (antibody, V domains shown)
VH: QVQLVQSGAEVKKPGASVQVSCKASGYTFTSYYMHWVRQAPGQGLEWMGIINPSGGSTSYAQKFQGRVTMTRDTSTSTVYMELSSLRSEDTAVYYCARQGGAQWLVLAFDIWGQGTMVTVSS
VL: EIVLTQSPGTLSLSPGERATLSCRASQSVSSYLAWYQQKPGQPPRLLIYGASSRATGIPDRFSGGGSGTDFTLTISRLEPEDFAVYYCQQYDSSPYTFGQGTKLEIK
B3: E9 (antibody, V domains shown)
VH: QVQLVQSGAEVKKPGASVKVSCKASGYTFTSYYMHWVRQAPGQGLEWMGVINSSGGSTSYAQKFQGRVTMTRDTSTSTVYMDLSSLRSEDTAVYYCARGYCTNGVYYDEDFDYWGQGTLVTVSS
VL: DIQMTQSPSSLSASVGDRVTITCRASQGISHYLAWFQQKPGKAPTSLIYAASSLQSGVPSKFSGSGSGTDFTLTISSLQPEDFATYYCQQYNSYPLTFGGGTKVEIK
B4: B16-v2 (antibody, V domains shown)
VH: QVQLVQSGAEVKKPGASVKVSCKASGYTFTSYYMHWVRQAPGQGLEWMGIIDPSGGSTSYAQKFQGRVTMTRDTSTNTVYMDLSSLRSEDTAVYYCARQGRYVGSYLDYWGQGTLVTVSS
VL: B3 VL with H31N, T45K, L47V, L78M, L96Y, G100Q, V104L
B5: L22 (antibody, V domains shown)
VH: EVQLLESGGGLVQPGGSLRLSCAASGFTFSSYAMGWVRQTPGKGLEWVSTISGRGGDTYYADSVKGRFTISRDNSKNTLYLQMNSLRAEDTAIYYCAKERGLGFDYWGQGTLVTVSS
VL: DIVMTQTPLSLPVTPGEPASISCRSSQSLLDSDDGNTYLDWYLQKPGQSPQLLIYTLSYRASGVPDRFSGSGSGTDFTLKISRVEAEDVGVYYCMQHLEFPLTFGGGTKVEIK
B6: A18 (antibody, V domains shown)
VH: QVTLRESGPALVKSTQTLTLTCTFSGFSLSTSGMCVSWIRQTPGKALEWLALIDWDDNKYYSTSLKTRLIISKDTSKNQVVLTMTNMEPVDTATYYCARIRGYSGSYDAFDIWGQGTMVTVSS
VL: DIVMTQSPLSLPVTPGEPASISCRSSQSLLHSNGYNYLDWYLQKPGQSPHILLYLGSNRAPGVPDRFSGSGSGTDFTLKISRVEAEDVGVYYCMQALQTPFTFGPGTKVDIK
B7: G16 (antibody, V domains shown)
VH: B2 VH
VL: B2 VL with P43A, D92G
B8: J8 (antibody, V domains shown)
VH: QVHLVQSGAEVKKPGASVKVSCKASGYTFTIYYIHWVRQAPGQGLEWMGIINPSGGSTSYAQKFQGRVTMTRDTSTSTVYMELSSLRSEDTAVYYCSGNDYVDYVTTDYYGMDVWGQGTTVTVSS
VL: B3 VL with H31N, T45K, Y94S, L96Y, G100Q, V104L
B9: B2 (antibody, V domains shown)
VH: QVQLVQSGAEVKKPGASVKVSCKASGYTFTSYYMHWVRQAPGQGLEWMGIINPSGGSTSYAQKFRGRVTMTRDTSTSTVYMELSSLRSEDTAVYYCARGDYDILTDYYYNMDVWGQGTTVTVSS
VL: DIQMTQSPSAMSASVGDRVTITCRASQGISNYLAWFQQKPGKVPKRLIYAASSLQSGVPSRFSGSGSGTEFTLTISSLQPEDFATYYCLQHNSYPYTFGQGTKLEIK
B10: O24 (antibody, V domains shown)
VH: QVQLVQSGAEVKKPGASVKVSCKASGYTFTSYYLHWVRQAPGHGLEWMAIINPSGGSTSYAQKFLGRVTMTRDTSTNTVYMELSSLRSEDTAVYYCARERQQLDYYYFAMDVWGQGTTVTVSS
VL: B3 VL with H31N, T45K, L96P, G100Q

Molecular target: Histidine-tagged DLL3 antigen (DLL3-His) (human) (UniProt Q9NYJ7)
Assay: epitope binning, Carterra array SPR, capture of DLL3-His

Binder | binding
B1 | binds
B2 | binds
B3 | binds
B4 | binds
B5 | binds
B6 | binds
B7 | binds
B8 | binds
B9 | binds
B10 | binds
